Drawing on PubChem BioAssay AID2685 (National Center for Advancing Translational Sciences (NCATS), 2010), this text covers cell number change and AC50 for 58 compounds.

The other results are listed elsewhere or left out. These are further read-outs of the screen, such as a control signal, another cell line or another target. No call is given for them. Most of these compounds were active or inconclusive in the main read-out, so they are no random draw. The note in brackets gives the kind of curve behind each potency; many fits are weak.

The assay is described as follows: qHTS Assay for Lipid Storage Modulators in Drosophila S3 Cells.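 As to cell number change: cells counted by Cell Tracker Red CMTPX staining in the red channel.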 Conditions: BODIPY lipid droplet fluorescence, 18-24 h; for cell number change: measured here: cell count max response, cells fed with added oleic acid. The essentials: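 Drosophila S3 cells got compounds at several concentrations plus oleic acid (400 uM solution). Laser-scanning cytometry with 488 nm excitation read lipid droplets at 500-530 nm and cells at 575-640 nm. Percent activity was relative to 20 uM Triacsin C.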
For orientation: Quantitative high-throughput screening tests each substance at several concentrations.

The mark [1] stands for this setting: measured here: cell number channel AC50, cells fed with added oleic acid.
Setting [2] is: measured here: lipid fluorescence (Fed channel) AC50, cells fed with added oleic acid.

In general, AC50 refers to the midpoint of the concentration-response curve, whichever way the signal moves. Read a high AC50 as weaker potency.

With `CCOc1ccc(N(C)S(=O)(=O)c2cc(-c3cc(C)no3)ccc2OC)cc1`, the cell number change was -31.8%. For the same compound, the concentration at half-maximal activity (AC50) under setting [1] was 16.4 µM [falling, partial curve, poor fit]. The AC50 under setting [2] was 6.51 µM [falling, partial curve].

Consider `CN(C)C1=NC[C@H](Cc2ccccc2)N1CC1CCC(C(C)(C)C)CC1` (stereo partly drawn), for which the cell number change was -8.68%. Moreover, under setting [2], the concentration at half-maximal activity (AC50) was 29.1 µM [falling, single point].

For the compound `CNC(C)C(=O)NC(C(=O)N1CCCC1C(=O)Nc1ccc2ncccc2c1)C(C)C` (stereo not drawn), the cell number change stood at 16%. Further, under setting [1], the concentration at half-maximal activity (AC50) was 3.66 µM [falling, single point]. The AC50 under setting [2] is 0.082 µM [rising, full curve].

Turning to `Nc1nonc1-n1nnc(C(=O)N/N=C/c2c[nH]c3ccccc23)c1-c1ccccc1`, the cell number change was found to be 16.8%. Moreover, under setting [2], the AC50 is 18.4 µM [rising, single point].

`CC(Sc1nnnn1-c1ccccc1)C(=O)Nc1ccc(Cl)cn1` (stereo not drawn): the AC50 under setting [2] is 5.17 µM [falling, partial curve].

Take `NC(=O)Cc1ccc(C(=O)c2ccccc2F)s1`: the cell number change stood at 3.62%. The half-maximal activity concentration (AC50) under setting [1] was 3.26 µM [falling, partial curve]. The concentration at half-maximal activity (AC50) under setting [2] was 2.59 µM [falling, partial curve].

In the case of `CC1CCCCC1NC(=O)Cn1[nH]c(=O)c2ccccc2c1=O` (stereo not drawn), the cell number change was -10.3%.

Turning to `COc1ccc(S(=O)(=O)N(Cc2ccccc2)c2ccccc2C(=O)N2CCOCC2)cc1`, the cell number change is -8.56%. In addition, the AC50 under setting [2] was 29.1 µM [rising, partial curve, poor fit].

Take `Cc1ccc(NC(=O)[C@H](C)NC(=O)C2CCN(C(=O)[C@@H](NC(=O)OC(C)(C)C)C(C)C)CC2)cc1`: the cell number change is 0.826%. The half-maximal activity concentration (AC50) under setting [2] is 2.06 µM [rising, partial curve].

With `COC12NC(=O)N(C)C1(OC)C(=O)N(C)C(=O)N2C` (stereo not drawn), the cell number change was -24.4%. Besides, the AC50 under setting [1] is 0.103 µM [falling, full curve, poor fit]. Further, the half-maximal activity concentration (AC50) under setting [2] is 0.013 µM [falling, full curve, poor fit].

Take `Cc1ccc(C(NC(=O)N2CCCC2)C(Cl)(Cl)Cl)cc1F` (stereo not drawn): the AC50 under setting [2] is 29.1 µM [rising, single point].

Turning to `NC(=O)c1cc2ccccc2oc1=NCc1ccccc1`, the AC50 under setting [2] was 3.66 µM [rising, single point].

As for `COc1ccc(CCC(=O)NCC23CC4CC(CC(C4)C2)C3)cc1`, the cell number change is -31.9%. Also, the concentration at half-maximal activity (AC50) under setting [1] was 32.6 µM [falling, single point]. Also, under setting [2], the half-maximal activity concentration (AC50) is 6.51 µM [falling, single point].

Take `C=CCOc1ccc(/C=C/C(=O)OCC(=O)N2CCCc3ccccc32)cc1`: the cell number change is 56.2%. The AC50 under setting [1] was 6.51 µM [rising, full curve].

Regarding `Cc1ccc(SCC(=O)Nc2ccccc2C(=O)O)cc1`, the cell number change is -0.54%.

As to `COCc1c(C(=O)N2CCN(S(=O)(=O)c3ccccc3Cl)CC2)oc2ccccc12`, the cell number change stood at 8.41%. Further, under setting [2], the AC50 was 4.11 µM [rising, partial curve, poor fit].

On to `CC(C)c1ccc(NC(=S)N(C)CCc2ccccn2)cc1`, for which the cell number change was -47.7%.

With `CCNC(=S)N1CCCC(c2nc3ccc(C)cc3[nH]2)C1` (stereo not drawn), the cell number change stood at 24.1%. Moreover, the half-maximal activity concentration (AC50) under setting [1] is 0.731 µM [rising, full curve, poor fit].

`COc1ccccc1NC(=O)CN1CCCCCC1`: the cell number change was determined as 41.1%.

As for `COC(=O)c1cccnc1-n1c(=O)c2cccnc2n(CC(=O)Nc2ccc(Br)cc2)c1=O`, the cell number change worked out at 70.1%.

Regarding `O=C(Cc1c(F)cccc1Cl)NCC1CCCO1` (stereo not drawn), the cell number change is -24.5%. Besides, the AC50 under setting [2] was 0.92 µM [falling, full curve, poor fit].

On to `CCOC(=O)Cc1cnc(NC(=O)CSc2nc(C)c(CC)c(=O)[nH]2)s1`, for which the cell number change came to 18.7%. Besides, the concentration at half-maximal activity (AC50) under setting [1] is 0.731 µM [falling, single point]. The AC50 under setting [2] was 0.82 µM [falling, single point].

Regarding `O=C(Nc1ccc2c(c1)OCO2)O[C@@H]1C[C@H]2CCCC(=O)N3CC[C@@H](C1)[C@@H]23`, the cell number change worked out at 22.8%.

For the compound `Cc1cc(NC(=S)NC(=O)c2ccccc2)ccc1-c1cc2ccccc2oc1=O`, the cell number change came out at 11.1%. For the same compound, the AC50 under setting [1] was 0.92 µM [rising, full curve, poor fit]. Moreover, the concentration at half-maximal activity (AC50) under setting [2] is 0.259 µM [rising, full curve, poor fit].

`O=C(NCCC1=CCCCC1)C(=O)NCC1OCCCN1S(=O)(=O)c1ccc(F)cc1` (stereo not drawn): the cell number change worked out at 42.3%. For the same compound, the AC50 under setting [2] was 0.731 µM [falling, single point].

For `COC(=O)CC1C(=O)NCCN1C(=O)c1c(F)cccc1F` (stereo not drawn), the cell number change is -17.1%. The AC50 under setting [2] is 6.51 µM [rising, single point].

As for `NC(=O)C1CCN(C(=O)c2ccc3c(=O)n(Cc4cccc(Br)c4)c(=S)[nH]c3c2)CC1`, the cell number change turned out to be 9.4%. Under setting [2], the concentration at half-maximal activity (AC50) was 29.1 µM [falling, single point].

Consider `CC[C@]1(c2ccccc2)C(=O)N(C(=O)OC)N1C(=O)OC`, for which the cell number change is -0.599%. Besides, the concentration at half-maximal activity (AC50) under setting [2] is 23.1 µM [falling, single point].

As for `Cc1ccc(S(=O)(=O)N2CCC(C(=O)Nc3ccc(C(C)C)cc3)CC2)cc1`, the cell number change was -18.2%. For the same compound, under setting [2], the AC50 is 1.16 µM [rising, full curve, poor fit].

For the compound `NC(=O)C1(C(N)=O)OC1c1ccc(Cl)c(Cl)c1` (stereo not drawn), the cell number change was -27.2%. Further, under setting [2], the AC50 was 0.651 µM [falling, full curve].

Regarding `C1CC1Cc1noc(CN2CCN(CC3CC3)CC2)n1`, the cell number change is -11.8%. Also, the half-maximal activity concentration (AC50) under setting [2] is 6.51 µM [falling, single point].

For the compound `Cc1ccc(/C=N/NC(=O)c2nnn(-c3nonc3N)c2C(C)C)s1`, the cell number change is 6.6%. For the same compound, the AC50 under setting [2] was 0.731 µM [rising, single point].

Take `CN(C)CCCN(C(=O)c1ccc([N+](=O)[O-])o1)c1nc2cc3c(cc2s1)OCO3`: the cell number change was 11.4%. Also, the AC50 under setting [2] was 2.06 µM [rising, partial curve, poor fit].

In the case of `N#C/C(=C(/O)COc1ccccc1)c1nc2ccccc2s1`, the cell number change is -13.2%. Moreover, the concentration at half-maximal activity (AC50) under setting [2] was 29.1 µM [falling, partial curve, poor fit].

In the case of `Cc1cc(C)c(S(=O)(=O)Nc2cccc(-n3cnnn3)c2)c(C)c1`, the cell number change was -16.5%. Moreover, the AC50 under setting [2] is 6.51 µM [falling, single point].

On to `Cc1ccc(NC(=O)COC(=O)CNC(=O)c2ccc(Br)cc2)c(C)c1`, for which the cell number change was 3.38%. Besides, the half-maximal activity concentration (AC50) under setting [2] is 0.731 µM [falling, single point].

Regarding `O=C(Oc1ccccc1)c1cccc2cccnc12`, the cell number change was -1.66%. In addition, under setting [2], the AC50 is 20.6 µM [falling, single point].

As to `O=C(Nc1ccccc1C(=O)NCc1ccco1)c1ccccc1`, the cell number change is 21.9%. Besides, the concentration at half-maximal activity (AC50) under setting [2] was 2.06 µM [falling, partial curve].

In the case of `CC(C)c1ccc(N(CC(=O)NCC2CCCO2)C(=O)CCC(=O)Nc2nccs2)cc1` (stereo not drawn), the cell number change was 13.2%.

As for `CN1CCN(C(=O)c2ccc(CNS(=O)(=O)c3ccc(F)c(Cl)c3)cc2)CC1`, the cell number change stood at 30%. Besides, the AC50 under setting [1] was 29.1 µM [rising, single point].

Take `CC(=O)Oc1ccc(C(=O)Nc2nnc(C)s2)cc1`: the cell number change turned out to be 7.98%. Besides, the concentration at half-maximal activity (AC50) under setting [2] was 0.00651 µM [rising, full curve, poor fit].

Take `Cc1ccnc(N2CCC(C(=O)NCc3ccc(F)cc3)CC2)n1`: the cell number change is -1.93%. The AC50 under setting [2] was 0.411 µM [falling, single point].

In the case of `CC(NC(=O)c1ccco1)C(c1cccs1)N1CCN(c2ccc(F)cc2)CC1` (stereo not drawn), the cell number change was -1.37%. Under setting [1], the AC50 is 2.31 µM [falling, partial curve].

`COC(=O)c1sccc1NC(=O)Nc1cccc([N+](=O)[O-])c1`: the cell number change is -41.1%. Moreover, the AC50 under setting [1] is 23.1 µM [falling, single point]. Moreover, under setting [2], the AC50 was 29.1 µM [falling, single point].

In the case of `O=C1c2ccc3c4c(ccc(c24)C(=O)N1NC(=O)C(F)(F)F)CC3`, the cell number change was determined as 144%. Also, the half-maximal activity concentration (AC50) under setting [1] was 9.2 µM [rising, partial curve]. Further, the AC50 under setting [2] is 29.1 µM [rising, partial curve].

Regarding `Nc1nonc1-n1nnc(C(=O)N/N=C/c2ccccc2)c1CSc1ccc(Cl)cc1`, the cell number change amounted to 22.6%. The AC50 under setting [2] was 29.1 µM [rising, single point].

Consider `Cc1[nH]n(C(C)(C)C)c(=O)c1Sc1ccccc1`, for which the cell number change was 59.3%. The AC50 under setting [1] was 5.17 µM [rising, full curve]. Moreover, the AC50 under setting [2] was 0.82 µM [rising, single point].

In the case of `S=C(Nc1cccc(Cl)c1)Nc1cccc2cnccc12`, the cell number change is -2.12%. Besides, under setting [2], the AC50 is 0.146 µM [rising, full curve, poor fit].

Turning to `NCCCn1c(C(=O)c2cc(Cl)c(N)c(Cl)c2)c2ccc(C(F)(F)F)cc2[n+]1[O-]`, the cell number change was -30.2%. Moreover, the AC50 under setting [1] is 3.26 µM [falling, full curve, poor fit]. In addition, the AC50 under setting [2] is 29.1 µM [falling, single point].

On to `O=C(/C=C/c1ccccc1)/C=C/c1ccccc1`, for which the cell number change is -30.5%. Further, the AC50 under setting [1] was 9.2 µM [falling, partial curve]. Also, the AC50 under setting [2] is 18.4 µM [falling, single point].

For the compound `COc1ccc(Nc2n[nH]c(C)c2[N+](=O)[O-])cc1`, the cell number change worked out at 40.7%.

As for `Cc1cc(C)n(-c2ccc(C(=O)Nc3ccc(S(=O)(=O)NCc4ccco4)cc3)cc2)n1`, the cell number change was -64.4%. Further, the AC50 under setting [1] is 29.1 µM [falling, single point].

As for `Cc1ccc(NC(=O)COc2ccccc2C(=O)NCc2ccccc2)cc1`, the cell number change was found to be 4.63%. In addition, the half-maximal activity concentration (AC50) under setting [1] is 4.61 µM [falling, single point]. Moreover, the AC50 under setting [2] is 6.51 µM [falling, single point].

On to `CCN(CC)S(=O)(=O)c1cc(C(=O)OCC(=O)Nc2cccc(Br)c2)ccc1F`, for which the cell number change is -18.5%. For the same compound, under setting [2], the concentration at half-maximal activity (AC50) was 0.92 µM [falling, full curve].

As to `COc1ccccc1-n1c(C)cc(/C=C2/C(=N)N3C(=NC2=O)SN=C3S(C)(=O)=O)c1C`, the cell number change was 27.7%. The half-maximal activity concentration (AC50) under setting [2] was 3.66 µM [rising, full curve, poor fit].

Regarding `CCOc1cc(C)c(Cl)cc1S(=O)(=O)n1cnc2ccccc21`, the cell number change was -36.8%. Moreover, the concentration at half-maximal activity (AC50) under setting [1] is 29.1 µM [falling, single point].

Take `CNC(=O)c1c(NC(=O)CS(=O)(=O)c2ccc(F)cc2)sc(C)c1C`: the cell number change stood at 39.8%. For the same compound, the concentration at half-maximal activity (AC50) under setting [1] is 29.1 µM [rising, single point].

With `O=C(NN1C(=O)NC2(CCCCC2)C1=O)c1ccc(-c2ccccc2Cl)o1`, the cell number change is -15%. In addition, under setting [2], the AC50 is 0.00517 µM [falling, full curve, poor fit].
